Experimental data as given in the supplement of paper PMC9233669.
Variants at the floor of the assay are shown more often than the library holds them.

Columns and labels:
[1] = tested on: biotinyl-Trp-oxazolone; assay: self-aminoacylation, catalytic enhancement (BWO) (fold over background); higher = more active; k-Seq, kA / k0A0; sequences stand for … in GGGAAUGGAUCCACAUCUACGAAUUC…UUCACUGCAGACUUGACGAAGCUG
How it was run: (§1)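 Catalytic enhancement equals the median kA over the uncatalyzed rate, the latter read from the low-activity peak of a bimodal Gaussian fit. Values of kA came from fitting each sequence's fraction reacted to a pseudo-first-order model, with 1000 bootstraps. Reacted RNA was captured with streptavidin and quantified by triplicate qPCR and Illumina sequencing after 90 minutes at room temperature with 2–1250 μM biotinyl-aminoacyl-oxazolone and 0.43 μM mutagenized RNA pools bearing a 21-nt variable region.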

[2] = tested on: biotinyl-Leu-oxazolone; assay: self-aminoacylation, catalytic enhancement (BLO) (fold over background); higher = more active; k-Seq, kA / k0A0; sequences stand for … in GGGAAUGGAUCCACAUCUACGAAUUC…UUCACUGCAGACUUGACGAAGCUG
How it was run: as §1

[3] = tested on: biotinyl-Val-oxazolone; assay: self-aminoacylation, catalytic enhancement (BVO) (fold over background); higher = more active; k-Seq, kA / k0A0; sequences stand for … in GGGAAUGGAUCCACAUCUACGAAUUC…UUCACUGCAGACUUGACGAAGCUG
How it was run: as §1

[4] = tested on: biotinyl-Ile-oxazolone; assay: self-aminoacylation, catalytic enhancement (BIO) (fold over background); higher = more active; k-Seq, kA / k0A0; sequences stand for … in GGGAAUGGAUCCACAUCUACGAAUUC…UUCACUGCAGACUUGACGAAGCUG
How it was run: as §1

[5] = tested on: biotinyl-Met-oxazolone; assay: self-aminoacylation, catalytic enhancement (BMO) (fold over background); higher = more active; k-Seq, kA / k0A0; sequences stand for … in GGGAAUGGAUCCACAUCUACGAAUUC…UUCACUGCAGACUUGACGAAGCUG
How it was run: as §1

[6] = tested on: biotinyl-Phe-oxazolone; assay: self-aminoacylation, catalytic enhancement (BFO) (fold over background); higher = more active; k-Seq, kA / k0A0; sequences stand for … in GGGAAUGGAUCCACAUCUACGAAUUC…UUCACUGCAGACUUGACGAAGCUG
How it was run: as §1

Sequence	self-aminoacylation [1]	self-aminoacylation [2]	self-aminoacylation [3]	self-aminoacylation [4]	self-aminoacylation [5]	self-aminoacylation [6]
AAGUUUGCUAAAAUUCGCAAG [Fam3.1 aminoacylation ribozyme variant]	1.42	1.21	1.25	1.55	1.05	1.17
CUAUUCCAAACAAUCGGUCUG [Fam1A.1 aminoacylation ribozyme variant]	0.703	0.839	0.767	0.927	0.841	0.757
ACGCACCUAGGUCAUCGGGUG [Fam2.2 aminoacylation ribozyme variant]	4.93	3.1	3.55	3.42	4.23	29
CCACAGUUCAUGCAAUCGGUC [Fam1B.1 aminoacylation ribozyme variant]	0.884	1.16	1.12	1.1	0.972	0.779
CCACUGUUCAAGCAAUCGGUC [Fam1B.1 aminoacylation ribozyme variant]	1.25	0.952	1.12	1.04	1.03	1.49
CAGUUUGCUAAUAUUCGCAAG [Fam3.1 aminoacylation ribozyme variant]	1.24	1.19	1.2	1.38	1.26	0.904
CCACUCUUCAAGCUAUCGGUC [Fam1B.1 aminoacylation ribozyme variant]	0.736	0.81	1	0.841	0.853	0.862
AAGUUUGCUAAUAGUCGACAG [Fam3.1 aminoacylation ribozyme variant]	0.91	0.675	0.693	0.872	0.579	1.23
AUUCACCUAGGUCGUCAGGUG [Fam2.2 aminoacylation ribozyme variant]	0.42	0.829	0.829	0.7	0.687	0.366
CUACUUCAAACAAUAUGUCUG [Fam1A.1 aminoacylation ribozyme variant]	0.505	0.697	0.81	0.805	0.648	1.13
AUGUUUGCUUAUAGUCGCAAG [Fam3.1 aminoacylation ribozyme variant]	1.59	1.25	1.25	1.6	1.52	1.57
AUUCACCUAGGUCAUAGGGGG [Fam2.2 aminoacylation ribozyme variant]	1.72	1.14	1.13	0.966	0.798	1.28
CCACACUUCAAUCAAGCGGUC [Fam1B.1 aminoacylation ribozyme variant]	0.769	0.694	0.811	0.709	0.634	0.972
ACUACCCUGGUCAUCGAGAGA [Fam2.1 aminoacylation ribozyme variant]	0.81	1.6	1.23	1.46	2.02	1.33
CCACACCUCAAGUAAUCGGUC [Fam1B.1 aminoacylation ribozyme variant]	1.4	1.3	1.01	1.27	1.15	1.31
CAGCUUGCUAAUAGUCGCAAG [Fam3.1 aminoacylation ribozyme variant]	1.72	1.89	1.86	1.82	1.72	2.54
CCACACGUCAAGGAAUCGGUC [Fam1B.1 aminoacylation ribozyme variant]	0.976	1.19	1.25	0.962	1.19	0.659
CUACCUCAAACAAUCUGUCUG [Fam1A.1 aminoacylation ribozyme variant]	0.807	0.57	0.787	0.73	0.637	0.973
AUUACCCUGGUCAUCGAGCAA [Fam2.1 aminoacylation ribozyme variant]	0.779	1.13	1.13	1.16	1.11	1.19
AUUCACCUAGGUCAUCGGUCG [Fam2.2 aminoacylation ribozyme variant]	0.521	0.989	0.863	0.787	0.82	0.372
AAGUUUGCUUACAGUCGCAAG [Fam3.1 aminoacylation ribozyme variant]	0.88	0.544	0.87	0.869	0.668	1.02
CCACACUUCCAGCAAUCGGUU [Fam1B.1 aminoacylation ribozyme variant]	1.25	1.34	1.71	1.5	1.18	1.14
CUACUACAACCAAUCGGUCUG [Fam1A.1 aminoacylation ribozyme variant]	0.627	0.608	0.775	0.64	0.646	0.736
AUUACCCUGGGAAUCGAGUGA [Fam2.1 aminoacylation ribozyme variant]	4.59	5.93	3.29	2.78	5.72	26.8

Sequence	self-aminoacylation [1]	self-aminoacylation [2]	self-aminoacylation [3]	self-aminoacylation [4]	self-aminoacylation [5]	self-aminoacylation [6]
CUACUUCGAAAAAUCGGUCUG [Fam1A.1 aminoacylation ribozyme variant]	0.503	0.674	0.665	0.724	0.824	0.507
AGCCACCUAGGUCAUCGGGUG [Fam2.2 aminoacylation ribozyme variant]	10.3	8.17	6.3	6.24	7.16	81.6
CCACACUUCAUGCAGUCGGUC [Fam1B.1 aminoacylation ribozyme variant]	0.748	1.06	0.958	0.852	1.19	0.715
ACUCACCUAGGUCCUCGGGUG [Fam2.2 aminoacylation ribozyme variant]	8.03	5.78	4.46	5.2	5.36	37.1
CUCCACUUCAAGCAAUCGGUC [Fam1B.1 aminoacylation ribozyme variant]	27.6	2.07	1.45	1.37	1.27	50.4
AUUCACUUAGGUCAUCGGAUG [Fam2.2 aminoacylation ribozyme variant]	0.528	0.579	0.714	0.701	0.766	0.46
AUUCACCUAGGUCAUUGGGCG [Fam2.2 aminoacylation ribozyme variant]	3.16	3.36	2.66	2.58	2.49	10.6
CGACUUCAAACAAACGGUCUG [Fam1A.1 aminoacylation ribozyme variant]	0.719	0.859	0.895	0.944	0.914	1.04
AAGUUUGCUAAUGUUCGCAAG [Fam3.1 aminoacylation ribozyme variant]	1.03	0.861	0.993	0.928	0.803	1.09
AAGUUUGCUAAUAAUCGCACG [Fam3.1 aminoacylation ribozyme variant]	0.627	0.47	0.725	0.695	0.615	0.641
CCACACUUAAAGCAAUCGGUC [Fam1B.1 aminoacylation ribozyme variant]	0.708	0.707	0.941	0.88	0.714	0.957
UCACACUUCAAGCGAUCGGUC [Fam1B.1 aminoacylation ribozyme variant]	1.53	0.847	1.04	0.937	1.06	1.82
CUACUUGAAACAAUCGAUCUG [Fam1A.1 aminoacylation ribozyme variant]	0.515	0.734	0.811	0.811	0.732	0.528
AAGUUUGCUAAUAAACGCAAG [Fam3.1 aminoacylation ribozyme variant]	0.97	0.687	0.667	0.774	0.833	1.12
CCAGACUUCCAGCAAUCGGUC [Fam1B.1 aminoacylation ribozyme variant]	1.06	1.25	1.47	1.44	1.47	0.843
CCACCCUUCAAGCAGUCGGUC [Fam1B.1 aminoacylation ribozyme variant]	1.17	1.18	1.67	1.37	1.12	1.22
AAUCACCUAGGUGAUCGGGUG [Fam2.2 aminoacylation ribozyme variant]	5.05	4.84	4.03	4.6	5.43	27.7
AAGAUUGCUUAUAGUCGCAAG [Fam3.1 aminoacylation ribozyme variant]	2.35	1.5	1.5	1.78	1.25	2.44
AUUGACCUAGGUCACCGGGUG [Fam2.2 aminoacylation ribozyme variant]	6.05	6.34	4.87	4.43	4.69	29.6
CCACACUUCAAGCACUCUGUC [Fam1B.1 aminoacylation ribozyme variant]	0.416	0.321	0.502	0.486	0.423	0.695
CUACUUCUACCAAUCGGUCUG [Fam1A.1 aminoacylation ribozyme variant]	0.637	0.684	0.692	0.719	0.69	0.773
CUACUUGAAACAAUCGGUCAG [Fam1A.1 aminoacylation ribozyme variant]	0.487	0.681	0.641	0.701	0.588	0.509
CUACUUCAAAAAAACGGUCUG [Fam1A.1 aminoacylation ribozyme variant]	0.553	0.693	0.685	0.791	0.713	0.809
AAGUUUGCUAAUGGUUGCAAG [Fam3.1 aminoacylation ribozyme variant]	0.963	0.715	0.723	0.761	0.664	1.19
